# According to patent publication US8673951B2, “Isoxazoline-substituted benzamide compound and pesticide” (priority 2005, dated 2014):
# Some of these results come from one statement about several compounds together. At least one compound was matched to its structure with a doubt left.
# Test system: cabbage moth (Plutella xylostella)
# Assay: Insecticidal test against cabbage moth (Test Example 1)
# Format: in vivo
# Conditions: chemical solution 10 ppm (**); cabbage leaf dip; second instar larva; after 6 days; 25° C.
row,Compound,insecticidal rate (rate of dead insects) [%]
1,CO/N=C/NC(=O)c1ccc(C2=NOC(c3cc(Cl)cc(Cl)c3)(C(F)(F)F)C2)cc1C (centres unmarked) [6-003],≥ 80
2,CCCON=CNC(=O)c1ccc(C2=NOC(c3cc(Cl)cc(Cl)c3)(C(F)(F)F)C2)cc1C (centres unmarked) [6-006],≥ 80
3,Cc1cc(C2=NOC(c3cc(Cl)cc(Cl)c3)(C(F)(F)F)C2)ccc1C(=O)NC=NOCCCl (centres unmarked) [6-008],≥ 80
4,Cc1cc(C2=NOC(c3cc(Cl)cc(Cl)c3)(C(F)(F)F)C2)ccc1C(=O)NC=NOCC(F)(F)F (centres unmarked) [6-009],≥ 80
5,C=CCON=CNC(=O)c1ccc(C2=NOC(c3cc(Cl)cc(Cl)c3)(C(F)(F)F)C2)cc1C (centres unmarked) [6-010],≥ 80
6,CON=CNC(=O)c1ccc(C2=NOC(c3cc(Cl)cc(Cl)c3)(C(F)(F)F)C2)cc1Cl (centres unmarked) [6-012],≥ 80
7,CCON=CNC(=O)c1ccc(C2=NOC(c3cc(Cl)cc(Cl)c3)(C(F)(F)F)C2)cc1Cl (centres unmarked) [6-013],≥ 80
8,CO/N=C\NC(=O)c1ccc(C2=NOC(c3cc(Cl)cc(Cl)c3)(C(F)(F)F)C2)cc1Br (centres unmarked) [6-014],≥ 80
9,CCO/N=C\NC(=O)c1ccc(C2=NOC(c3cc(Cl)cc(Cl)c3)(C(F)(F)F)C2)cc1Br (centres unmarked) [6-015],≥ 80
10,CO/N=C\NC(=O)c1ccc(C2=NOC(c3cc(Cl)cc(Cl)c3)(C(F)(F)F)C2)cc1I (centres unmarked) [6-016],≥ 80
11,CCON=CNC(=O)c1ccc(C2=NOC(c3cc(Cl)cc(Cl)c3)(C(F)(F)F)C2)cc1I (centres unmarked) [6-017],≥ 80
12,CCO/N=C\NC(=O)c1ccc(C2=NOC(c3cc(Cl)cc(Cl)c3)(C(F)(F)F)C2)cc1C (centres unmarked) [6-018],≥ 80
13,CCO/N=C\NC(=O)c1ccc(C2=NOC(c3cc(Cl)cc(Cl)c3)(C(F)(F)F)C2)cc1C(F)(F)F (centres unmarked) [6-021],≥ 80
14,CO/N=C\NC(=O)c1ccc(C2=NOC(c3cc(Cl)cc(Cl)c3)(C(F)(F)F)C2)cc1OC(F)F (centres unmarked) [6-022],≥ 80
15,CO/N=C\NC(=O)c1ccc(C2=NOC(c3cc(Cl)cc(Cl)c3)(C(F)(F)F)C2)cc1[N+](=O)[O-] (centres unmarked) [6-024],≥ 80
16,CO/N=C\NC(=O)c1ccc(C2=NOC(c3cc(Cl)cc(Cl)c3)(C(F)(F)F)C2)cc1C#N (centres unmarked) [6-025],≥ 80
17,CON=CNC(=O)c1ccc(C2=NOC(c3cc(Cl)cc(Cl)c3)(C(F)(F)F)C2)cc1-c1ccccc1 (centres unmarked) [6-026],≥ 80
18,CO/N=C\NC(=O)c1ccc(C2=NOC(c3cc(Cl)cc(Cl)c3)(C(F)(F)F)C2)cc1-n1cncn1 (centres unmarked) [6-027],≥ 80
19,CON=CNC(=O)c1ccc(C2=NOC(c3cc(C(F)(F)F)cc(C(F)(F)F)c3)(C(F)(F)F)C2)cc1C (centres unmarked) [6-030],≥ 80
20,CCO/N=C\NC(=O)c1ccc(C2=NOC(c3cc(Cl)cc(Cl)c3)(C(F)(F)F)C2)cc1NC(C)=O (centres unmarked) [6-034],≥ 80
21,CON=CNC(=O)c1ccc(C2=NOC(c3cc(Cl)c(F)c(Cl)c3)(C(F)(F)F)C2)cc1C (centres unmarked) [6-038],≥ 80
22,CON=CNC(=O)c1ccc(C2=NOC(c3cc(Cl)c(Cl)c(Cl)c3)(C(F)(F)F)C2)cc1C (centres unmarked) [6-039],≥ 80
23,CCON=CNC(=O)c1ccc(C2=NOC(c3cc(Cl)c(Cl)c(Cl)c3)(C(F)(F)F)C2)cc1C (centres unmarked) [6-040],≥ 80
24,CON=CNC(=O)c1ccc(C2=NOC(c3cc(Cl)c(F)c(C(F)(F)F)c3)(C(F)(F)F)C2)cc1C (centres unmarked) [6-041],≥ 80
25,CCON=CNC(=O)c1ccc(C2=NOC(c3cc(Cl)cc(Cl)c3)(C(F)(F)F)C2)cc1[N+](=O)[O-] (centres unmarked) [6-046],≥ 80

row,Compound,insecticidal rate (rate of dead insects) [%]
1,CON=CNC(=O)c1ccc(C2=NOC(c3cc(C(F)(F)F)cc(C(F)(F)F)c3)(C(F)(F)F)C2)cc1 (centres unmarked) [6-050],≥ 80
2,CCON=CNC(=O)c1ccc(C2=NOC(c3cc(C(F)(F)F)cc(C(F)(F)F)c3)(C(F)(F)F)C2)cc1 (centres unmarked) [6-051],≥ 80
3,CON=CNC(=O)c1ccc(C2=NOC(c3cc(Cl)c(Cl)c(Cl)c3)(C(F)(F)F)C2)cc1 (centres unmarked) [6-052],≥ 80
4,CCON=CNC(=O)c1ccc(C2=NOC(c3cc(Cl)c(Cl)c(Cl)c3)(C(F)(F)F)C2)cc1 (centres unmarked) [6-053],≥ 80
5,CCCON=CNC(=O)c1ccc(C2=NOC(c3cc(Cl)c(Cl)c(Cl)c3)(C(F)(F)F)C2)cc1 (centres unmarked) [6-054],≥ 80
6,CC(C)ON=CNC(=O)c1ccc(C2=NOC(c3cc(Cl)c(Cl)c(Cl)c3)(C(F)(F)F)C2)cc1 (centres unmarked) [6-055],≥ 80
7,COCN(C=NOC)C(=O)c1ccc(C2=NOC(c3cc(Cl)cc(Cl)c3)(C(F)(F)F)C2)cc1C (centres unmarked) [7-001],≥ 80
8,CON=CN(C(=O)OC)C(=O)c1ccc(C2=NOC(c3cc(Cl)cc(Cl)c3)(C(F)(F)F)C2)cc1C (centres unmarked) [7-004],≥ 80
9,CCOCN(C=NOC)C(=O)c1ccc(C2=NOC(c3cc(Cl)cc(Cl)c3)(C(F)(F)F)C2)cc1C (centres unmarked) [7-006],≥ 80
10,CON=CN(CC#N)C(=O)c1ccc(C2=NOC(c3cc(Cl)cc(Cl)c3)(C(F)(F)F)C2)cc1C (centres unmarked) [7-007],≥ 80
11,C#CCN(C=NOC)C(=O)c1ccc(C2=NOC(c3cc(Cl)cc(Cl)c3)(C(F)(F)F)C2)cc1C (centres unmarked) [7-008],≥ 80
12,CCON=CN(COC)C(=O)c1ccc(C2=NOC(c3cc(Cl)cc(Cl)c3)(C(F)(F)F)C2)cc1C (centres unmarked) [7-009],≥ 80
13,CON=CNC(=S)c1ccc(C2=NOC(c3cc(Cl)cc(Cl)c3)(C(F)(F)F)C2)cc1 (centres unmarked) [7-010],≥ 80
14,CCON=CNC(=S)c1ccc(C2=NOC(c3cc(Cl)cc(Cl)c3)(C(F)(F)F)C2)cc1 (centres unmarked) [7-011],≥ 80
15,CON=CNC(=S)c1ccc(C2=NOC(c3cc(Cl)cc(Cl)c3)(C(F)(F)F)C2)cc1C (centres unmarked) [7-012],≥ 80
16,CON=CN(Cc1ccccn1)C(=O)c1ccc(C2=NOC(c3cc(Cl)cc(Cl)c3)(C(F)(F)F)C2)cc1C (centres unmarked) [7-019],≥ 80
17,CCON=CN(CC#N)C(=O)c1ccc(C2=NOC(c3cc(Cl)cc(Cl)c3)(C(F)(F)F)C2)cc1C (centres unmarked) [7-020],≥ 80
18,CON=CN(C[Si](C)(C)C)C(=O)c1ccc(C2=NOC(c3cc(Cl)cc(Cl)c3)(C(F)(F)F)C2)cc1C (centres unmarked) [7-021],≥ 80
19,CON=CNC(=S)c1ccc(C2=NOC(c3cc(Cl)c(Cl)c(Cl)c3)(C(F)(F)F)C2)cc1 (centres unmarked) [7-022],≥ 80
20,CCON=CNC(=S)c1ccc(C2=NOC(c3cc(Cl)c(Cl)c(Cl)c3)(C(F)(F)F)C2)cc1 (centres unmarked) [7-023],≥ 80
21,COCSC(=NC(=O)c1ccc(C2=NOC(c3cc(Cl)cc(Cl)c3)(C(F)(F)F)C2)cc1C)OC (centres unmarked) [8-002],≥ 80
22,COC(=NC(=O)c1ccc(C2=NOC(c3cc(Cl)cc(Cl)c3)(C(F)(F)F)C2)cc1C)SC(C)=O (centres unmarked) [8-003],≥ 80
23,CC(=NC(=O)c1ccc(C2=NOC(c3cc(Cl)cc(Cl)c3)(C(F)(F)F)C2)cc1C)N(C)C (centres unmarked) [8-007],≥ 80
24,COC(=NC(=O)c1ccc(C2=NOC(c3cc(Cl)cc(Cl)c3)(C(F)(F)F)C2)cc1C)N(C)C (centres unmarked) [8-013],≥ 80
25,CON=CNC(=O)c1ncc(C2=NOC(c3cc(Cl)cc(Cl)c3)(C(F)(F)F)C2)cc1Cl (centres unmarked) [9-001],≥ 80

# Same assay, conditions: chemical solution 100 ppm (*); cabbage leaf dip; second instar larva; after 6 days; 25° C.
row,Compound,insecticidal rate (rate of dead insects) [%]
1,Cc1cc(C2=NOC(c3cc(Cl)cc(Cl)c3)(C(F)(F)F)C2)ccc1C(=O)NC1=NOC(C)C1 (centres unmarked) [6-019],≥ 80
2,CC(=O)NN=CNC(=O)c1ccc(C2=NOC(c3cc(Cl)cc(Cl)c3)(C(F)(F)F)C2)cc1C (centres unmarked) [6-042],≥ 80
3,Cc1cc(C2=NOC(c3cc(Cl)cc(Cl)c3)(C(F)(F)F)C2)ccc1C(=O)NC=NOCc1ccc([N+](=O)[O-])cc1 (centres unmarked) [6-045],≥ 80
4,CON=CNC(=O)c1ccc(C2=NOC(c3cc(Cl)cc(Cl)c3)(C(F)(F)F)C2)cc1-c1ccc(Cl)cc1 (centres unmarked) [6-047],≥ 80
5,CON=CNC(=O)c1ccc(C2=NOC(c3cc(Cl)cc(Cl)c3)(C(F)(F)F)C2)cc1-c1ccoc1 (centres unmarked) [6-048],≥ 80
6,CON=CN(CC(=O)OC)C(=O)c1ccc(C2=NOC(c3cc(Cl)cc(Cl)c3)(C(F)(F)F)C2)cc1C (centres unmarked) [7-018],≥ 80
7,"COC(=NC(=O)c1ccc(C2=NOC(c3cc(Cl)cc(Cl)c3)(C(F)(F)F)C2)cc1C)SC (centres unmarked) [8-001, O,S-Diemthyl-4-[5-(3,5-dichlorophenyl)-5-trifluoromethyl-4,5-dihydroisoxazole-3-yl]-2-methylbenzoyl iminothiocarbamate]",≥ 80
8,C#CCOC(=NC(=O)c1ccc(C2=NOC(c3cc(Cl)cc(Cl)c3)(C(F)(F)F)C2)cc1C)SC (centres unmarked) [8-017],≥ 80

# Same assay, conditions: chemical solution 500 ppm; cabbage leaf dip; second instar larva; after 6 days; 25° C.
row,Compound,insecticidal rate (rate of dead insects) [%]
1,Cc1cc(C2=NOC(c3cc(Cl)cc(Cl)c3)(C(F)(F)F)C2)ccc1C(=O)NC=NOCC(=O)O (centres unmarked) [6-044],≥ 80
2,CN(C)C=NC(=O)c1ccc(C2=NOC(c3cc(Cl)cc(Cl)c3)(C(F)(F)F)C2)cc1 (centres unmarked) [8-004],≥ 80
3,CN(C)C=NC(=S)c1ccc(C2=NOC(c3cc(Cl)cc(Cl)c3)(C(F)(F)F)C2)cc1 (centres unmarked) [8-005],≥ 80
4,Cc1cc(C2=NOC(c3cc(Cl)cc(Cl)c3)(C(F)(F)F)C2)ccc1C(=S)N=CN(C)C (centres unmarked) [8-012],≥ 80
5,CSC(=NC(=O)c1ccc(C2=NOC(c3cc(Cl)cc(Cl)c3)(C(F)(F)F)C2)cc1C)N(C)C (centres unmarked) [8-014],≥ 80
6,CCCCOC(=NC(=O)c1ccc(C2=NOC(c3cc(Cl)cc(Cl)c3)(C(F)(F)F)C2)cc1C)SC (centres unmarked) [8-016],≥ 80
7,COC(=O)NC(=O)c1ncc(C2=NOC(c3cc(Cl)cc(Cl)c3)(C(F)(F)F)C2)cc1Cl (centres unmarked) [9-002],≥ 80
